Data taken from publication doi:10.1101/2024.10.11.617818.
No constants are given. Whether binding was seen depends on the method and setting. Binding seen in cells or lysates may run through a third protein. Some results given as binding are weak or reduced against the parent protein; the word gives no strength. Where a sequence is shown, tags or fusion partners need not be part of it.

Molecular target: T1, YFP:Kin-12F (full length, dexamethasone-induced in Arabidopsis) (Arabidopsis thaliana) (UniProt F4JDI6)
T1 sequence: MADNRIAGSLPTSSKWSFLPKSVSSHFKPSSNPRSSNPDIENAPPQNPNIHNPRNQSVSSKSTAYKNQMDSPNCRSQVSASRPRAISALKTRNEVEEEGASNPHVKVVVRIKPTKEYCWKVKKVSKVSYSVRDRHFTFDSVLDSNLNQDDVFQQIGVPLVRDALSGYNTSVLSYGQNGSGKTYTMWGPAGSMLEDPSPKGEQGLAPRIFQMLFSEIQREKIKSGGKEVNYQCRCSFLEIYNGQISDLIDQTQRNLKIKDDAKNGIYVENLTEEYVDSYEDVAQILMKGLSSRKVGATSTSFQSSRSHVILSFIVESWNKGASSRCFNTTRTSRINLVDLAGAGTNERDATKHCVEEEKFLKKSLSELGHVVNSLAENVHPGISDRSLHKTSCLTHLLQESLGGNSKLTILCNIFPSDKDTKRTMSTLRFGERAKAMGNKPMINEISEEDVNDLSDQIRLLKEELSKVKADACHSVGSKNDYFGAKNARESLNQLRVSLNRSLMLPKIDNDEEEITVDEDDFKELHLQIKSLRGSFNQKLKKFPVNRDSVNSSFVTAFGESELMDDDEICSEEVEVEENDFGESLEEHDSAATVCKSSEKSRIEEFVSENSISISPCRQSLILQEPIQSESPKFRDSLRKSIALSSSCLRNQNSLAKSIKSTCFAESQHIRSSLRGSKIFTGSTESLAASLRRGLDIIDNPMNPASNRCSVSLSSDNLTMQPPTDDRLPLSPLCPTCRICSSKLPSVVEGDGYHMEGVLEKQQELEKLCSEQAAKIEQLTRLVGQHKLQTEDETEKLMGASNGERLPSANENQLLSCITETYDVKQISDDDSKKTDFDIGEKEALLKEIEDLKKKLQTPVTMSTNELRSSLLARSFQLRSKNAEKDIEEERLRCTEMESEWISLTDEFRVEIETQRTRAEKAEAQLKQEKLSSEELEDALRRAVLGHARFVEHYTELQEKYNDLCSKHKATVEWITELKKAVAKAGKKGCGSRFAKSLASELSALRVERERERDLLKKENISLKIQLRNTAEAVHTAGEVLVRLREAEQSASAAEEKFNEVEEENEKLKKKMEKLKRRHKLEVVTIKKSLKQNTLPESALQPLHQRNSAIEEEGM
Assay: co-IP

- binding: binds
B1: mCherry:RAB-A2a (p35S::mCherry:RAB-A2a in Arabidopsis) (protein, UniProt O04486 1-217)
chain: MARRPDEEYDYLFKVVLIGDSGVGKSNLLSRFTRNEFCLESKSTIGVEFATRTLQVEGRTVKAQIWDTAGQERYRAITSAYYRGALGALLVYDVTKPTTFENVSRWLKELRDHADSNIVIMLIGNKTDLKHLRAVATEDAQSYAEKEGLSFIETSALEALNVEKAFQTILSEVYRIISKKSISSDQTTANANIKEGQTIDVAATSESNAKKPCCSSS
